We go through 3 substances from PMC3950292.

Chains of the proteins cited; added tags and fusions are not shown.
UniProt Q6WB96: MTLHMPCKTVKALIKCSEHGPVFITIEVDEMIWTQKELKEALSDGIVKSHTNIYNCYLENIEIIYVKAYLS
UniProt Q99836: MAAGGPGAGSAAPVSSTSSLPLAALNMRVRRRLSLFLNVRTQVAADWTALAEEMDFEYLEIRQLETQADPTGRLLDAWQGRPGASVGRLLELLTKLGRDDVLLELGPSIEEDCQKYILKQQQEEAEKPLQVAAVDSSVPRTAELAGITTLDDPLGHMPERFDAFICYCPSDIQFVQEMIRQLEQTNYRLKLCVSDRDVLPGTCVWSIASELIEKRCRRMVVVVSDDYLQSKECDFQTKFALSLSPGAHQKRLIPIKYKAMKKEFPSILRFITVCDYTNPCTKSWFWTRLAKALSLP

No constants are given. Whether binding was seen depends on the method and setting. In cells and extracts the contact can be indirect. Some results given as binding are weak or reduced against the parent protein; the word gives no strength.

Experiment [1] addresses V5-tagged hMPV M2-2 protein (human metapneumovirus (hMPV)) (UniProt Q6WB96). The experiment can be described thus: co-IP; 293 cells cotransfected with HA-MyD88 and V5-M2-2, lysed 30 h after transfection; IP with anti-V5 and blot with anti-HA, and reverse (IP anti-HA, blot anti-V5); protein A/G-agarose, 4°C, washes of different ionic strength (Roche kit).
Experiment [2] has as its target HA-tagged MyD88 (UniProt Q99836). The experiment is described as above.
The target of experiment [3] is endogenous MyD88 (human (endogenous in THP1)) (UniProt Q99836). The experiment can be described thus: co-IP; THP1 cells mock infected or infected with rhMPV-WT or -ΔM2-2, MOI 5, 24 h; lysate IP with anti-MyD88 or isotype control, blot with anti-hMPV antibody.

As to “HA-tagged MyD88 (from UniProt Q99836 1-296)”, the binding result in experiment [1] was “binds”. “V5-tagged hMPV M2-2 protein (from UniProt Q6WB96 1-71)”: the binding entry in experiment [2] is “binds”. For “viral M2-2 protein (from rhMPV-WT infection) (from UniProt Q6WB96 1-71)”, the binding entry in experiment [3] was “binds”.
